Results are given in words; binding and its absence hold for the method and conditions named. Binding seen in cells or lysates may run through a third protein. Here binding means that the protein was enriched with, or labelled near, the bait; the list need not be complete. Sequences can lack the tags named with a protein.
Target: T1, Vipp1–GFP (Synechocystis Vipp1 tagged with green fluorescent protein at the C-terminus) (Synechocystis sp. PCC6803) (UniProt Q55707)
T1 sequence: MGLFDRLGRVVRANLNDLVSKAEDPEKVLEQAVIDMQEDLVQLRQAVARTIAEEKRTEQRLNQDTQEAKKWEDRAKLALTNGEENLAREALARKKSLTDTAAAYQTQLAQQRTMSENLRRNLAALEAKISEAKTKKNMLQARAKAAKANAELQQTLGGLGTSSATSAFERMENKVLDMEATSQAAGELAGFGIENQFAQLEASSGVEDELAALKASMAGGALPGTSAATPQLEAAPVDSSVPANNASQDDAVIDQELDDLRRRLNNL
Experiment: affinity purification with mass spectrometry; anti-GFP microbeads (μMACS column) on lysate of HL-exposed (600 μE m^−2 s^−1) Synechocystis vipp1–gfp cells broken without detergent; bound fraction on 10% SDS-PAGE, bands identified by MS/MS; compared with LL vipp1–gfp and HL wild-type cells

- binding: binds
B1: Translation initiation factor IF-2 (protein, UniProt P72689 1-1001)
chain: MNNAKVRIYDLSKELNLENRDILDICERLNVAAKSHSSTISESDAERIKAAAEKFTPQQPKKPRVASRPESKEDKSDPKQQKILAIHHKQEKSGGPSPARPTPPPRPKLQAPKAPTPPQPPVAKASAPKIQKQEEPAQEAPKSVAPPTQPLAPPPVPSLQSPPSKPAPPTPPAKKAAPAPRLAGPPGRTASPNKTAVPAPAKPKVNRPEIVSLKDNRGQARSPGDREEKVAIAAPEPPKPKVELRRPKPPRPEEDENLPELLEFPPLSRGKGVDGDNDADDGDLLSTEKPKPKLKRPTPPRLGKPDQWEDDEDEKANKAKAANKGKRRPKMDDDDDDLDIDGDNGPKPTLVSLSIARPPKPKSLAAKPSTPTVAKVKKPTLKSEAGSSAGGSSRSRGDRRDRKEVVQKPEVIMLDRSLTVRDLADLLKISETDIIKRLFLKGVAVQITQTLDEETARMVAESFEVAVETPERVAAAAKTTEMLDEADLDNLVRRPPVVTIMGHVDHGKTTLLDSIRKTKVAQGEAGGITQHIGAYHVEVEHNDKTEQIVFLDTPGHEAFTAMRARGAKVTDIAILVVAADDGVQPQTKEAISHAKAAGVPLIVAINKVDKPEANPDRIKQELSELGLLAEEWGGDTIMVPVSALNGDNLDGLLEMILLVSEVEELVANPNRQAKGTVIEANLDRTRGPVATLLIQNGTLRVGDAIVVGAVYGKIRAMIDDRGDKVEEASPSFAVEILGLGDVPAAGDEFEVFTNEKDARLQAEARAMEDRQTRLQQAMSSRKVTLSSISAQAQEGELKELNIILKADVQGSLGAILGSLEQLPQGEVQIRVLLASPGEVTETDVDLAAASGAIIIGFNTTLASGARQAADQEGVDIREYDIIYKLLDDIQGAMEGLLDPEEIESSLGTAEVRAVFPVGRGNIAGCYVQSGKIIRNRNLRVRRGDQVLFEGNIDSLKRIKEDVREVNAGYECGIGCSKFNDWKEGDIIEAYEMTMKRRTLAT

Source: PMC4297356
